In publication PMC6488640:
These are yes or no findings as the source states them, for the method shown. In cells and extracts the contact can be indirect. Some entries that bind do so weakly or less than the wild type. One block for each molecule: values may come before it.

Protein sequences, listed by entry. Tags and fused reporters are not part of them. Lines headed by an entry give the natural chain unless they say otherwise; changes in a name come on top.
UniProt Q13309: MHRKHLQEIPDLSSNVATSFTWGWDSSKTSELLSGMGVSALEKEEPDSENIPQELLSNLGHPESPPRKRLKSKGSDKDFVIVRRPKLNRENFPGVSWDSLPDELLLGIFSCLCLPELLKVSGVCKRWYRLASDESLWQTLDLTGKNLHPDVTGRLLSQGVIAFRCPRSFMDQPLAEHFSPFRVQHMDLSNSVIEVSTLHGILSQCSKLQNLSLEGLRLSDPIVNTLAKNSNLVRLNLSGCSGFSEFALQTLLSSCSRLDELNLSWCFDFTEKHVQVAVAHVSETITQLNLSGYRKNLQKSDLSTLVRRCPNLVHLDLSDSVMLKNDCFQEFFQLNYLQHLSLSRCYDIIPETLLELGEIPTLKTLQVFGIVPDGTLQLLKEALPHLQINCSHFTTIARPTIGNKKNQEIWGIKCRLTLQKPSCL
UniProt Q93009: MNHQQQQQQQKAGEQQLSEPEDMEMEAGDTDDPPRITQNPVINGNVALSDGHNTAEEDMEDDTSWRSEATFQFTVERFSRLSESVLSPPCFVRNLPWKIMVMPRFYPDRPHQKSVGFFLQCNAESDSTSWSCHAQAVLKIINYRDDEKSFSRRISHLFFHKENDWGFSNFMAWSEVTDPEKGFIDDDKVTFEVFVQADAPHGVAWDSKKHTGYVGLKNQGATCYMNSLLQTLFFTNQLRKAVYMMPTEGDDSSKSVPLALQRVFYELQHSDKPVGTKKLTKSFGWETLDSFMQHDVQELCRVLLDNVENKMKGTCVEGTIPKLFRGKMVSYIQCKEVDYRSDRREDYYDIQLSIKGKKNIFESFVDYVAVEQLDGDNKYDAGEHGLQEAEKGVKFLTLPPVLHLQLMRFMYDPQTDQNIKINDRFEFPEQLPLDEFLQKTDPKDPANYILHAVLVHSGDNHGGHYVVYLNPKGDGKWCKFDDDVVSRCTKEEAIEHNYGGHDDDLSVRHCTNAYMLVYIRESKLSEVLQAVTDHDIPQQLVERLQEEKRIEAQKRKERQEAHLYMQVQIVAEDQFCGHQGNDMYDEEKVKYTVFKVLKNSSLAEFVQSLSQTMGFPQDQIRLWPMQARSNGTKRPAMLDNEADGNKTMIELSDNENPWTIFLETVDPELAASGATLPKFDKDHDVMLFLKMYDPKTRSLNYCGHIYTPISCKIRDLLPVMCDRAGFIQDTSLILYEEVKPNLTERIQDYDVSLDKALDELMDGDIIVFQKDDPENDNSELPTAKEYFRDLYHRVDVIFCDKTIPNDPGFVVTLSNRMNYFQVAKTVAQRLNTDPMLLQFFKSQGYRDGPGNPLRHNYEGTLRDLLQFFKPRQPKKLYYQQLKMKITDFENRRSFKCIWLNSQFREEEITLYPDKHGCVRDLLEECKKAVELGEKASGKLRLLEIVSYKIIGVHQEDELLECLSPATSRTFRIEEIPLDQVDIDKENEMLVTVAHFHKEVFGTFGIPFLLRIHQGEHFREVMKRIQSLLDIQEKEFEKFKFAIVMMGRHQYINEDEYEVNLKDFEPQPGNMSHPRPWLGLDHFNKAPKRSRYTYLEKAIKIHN

Target: S-phase kinase-associated protein 2 (SKP2), endogenous (human (endogenous in KBM5 and KBM5-T315I)) (UniProt Q13309)
Assay: co-IP; screen of endogenous SKP2 against a panel of DUBs in KBM5-T315I cell extract; proteins interacting with SKP2 detected by western blot; antibody coupled to Dynabeads, 4 °C 1-2 h, washed with PBS-T

- binding: binds
Molecule: USP7, endogenous (from UniProt Q93009 1-1102) (enzyme)

- binding: binds
B1: USP13, endogenous (enzyme, UniProt Q92995 1-863)
chain: MQRRGALFGMPGGSGGRKMAAGDIGELLVPHMPTIRVPRSGDRVYKNECAFSYDSPNSEGGLYVCMNTFLAFGREHVERHFRKTGQSVYMHLKRHVREKVRGASGGALPKRRNSKIFLDLDTDDDLNSDDYEYEDEAKLVIFPDHYEIALPNIEELPALVTIACDAVLSSKSPYRKQDPDTWENELPVSKYANNLTQLDNGVRIPPSGWKCARCDLRENLWLNLTDGSVLCGKWFFDSSGGNGHALEHYRDMGYPLAVKLGTITPDGADVYSFQEEEPVLDPHLAKHLAHFGIDMLHMHGTENGLQDNDIKLRVSEWEVIQESGTKLKPMYGPGYTGLKNLGNSCYLSSVMQAIFSIPEFQRAYVGNLPRIFDYSPLDPTQDFNTQMTKLGHGLLSGQYSKPPVKSELIEQVMKEEHKPQQNGISPRMFKAFVSKSHPEFSSNRQQDAQEFFLHLVNLVERNRIGSENPSDVFRFLVEERIQCCQTRKVRYTERVDYLMQLPVAMEAATNKDELIAYELTRREAEANRRPLPELVRAKIPFSACLQAFSEPENVDDFWSSALQAKSAGVKTSRFASFPEYLVVQIKKFTFGLDWVPKKFDVSIDMPDLLDINHLRARGLQPGEEELPDISPPIVIPDDSKDRLMNQLIDPSDIDESSVMQLAEMGFPLEACRKAVYFTGNMGAEVAFNWIIVHMEEPDFAEPLTMPGYGGAASAGASVFGASGLDNQPPEEIVAIITSMGFQRNQAIQALRATNNNLERALDWIFSHPEFEEDSDFVIEMENNANANIISEAKPEGPRVKDGSGTYELFAFISHMGTSTMSGHYICHIKKEGRWVIYNDHKVCASERPPKDLGYMYFYRRIPS
